Data reported in PMC6375917 (2019).
These are yes or no findings as the source states them, for the method shown. Binding seen in cells or lysates may run through a third protein. Some entries that bind do so weakly or less than the wild type. Where a sequence is shown, tags or fusion partners need not be part of it.

Target: T1, His-tagged Tim50 N283Y (yeast) (UniProt Q02776)
T1 sequence: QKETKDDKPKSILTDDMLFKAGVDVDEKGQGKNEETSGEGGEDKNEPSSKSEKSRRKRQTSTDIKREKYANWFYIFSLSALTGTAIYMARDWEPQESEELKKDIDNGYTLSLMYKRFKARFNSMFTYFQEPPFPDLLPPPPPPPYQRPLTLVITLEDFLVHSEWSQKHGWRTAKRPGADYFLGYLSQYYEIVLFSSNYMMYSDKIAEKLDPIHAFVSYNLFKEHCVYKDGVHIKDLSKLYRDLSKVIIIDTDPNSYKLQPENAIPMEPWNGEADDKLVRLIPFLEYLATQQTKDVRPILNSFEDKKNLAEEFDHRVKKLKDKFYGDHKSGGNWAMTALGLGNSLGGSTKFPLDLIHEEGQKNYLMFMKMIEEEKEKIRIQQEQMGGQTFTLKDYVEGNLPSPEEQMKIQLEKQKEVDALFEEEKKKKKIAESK
Assay: pull-down; mitochondria from cells expressing His-tagged Tim50 versions solubilized with 1% digitonin, incubated with Ni-NTA agarose beads at 4 °C, eluted with Laemmli buffer with 300 mM imidazole; immunoblot with Tim50, Tim17 and Tim23 antibodies

binding: binds
B1: Tim23 (protein, UniProt P32897 1-222)
chain: MSWLFGDKTPTDDANAAVGGQDTTKPKELSLKQSLGFEPNINNIISGPGGMHVDTARLHPLAGLDKGVEYLDLEEEQLSSLEGSQGLIPSRGWTDDLCYGTGAVYLLGLGIGGFSGMMQGLQNIPPNSPGKLQLNTVLNHITKRGPFLGNNAGILALSYNIINSTIDALRGKHDTAGSIGAGALTGALFKSSKGLKPMGYSSAMVAAACAVWCSVKKRLLEK
